{
  "sequences": {"note": "Sequences of proteins named here, by UniProt entry; tags and fusion partners are left off. Residues count along the entry.", "UniProt P00807, 25-281": "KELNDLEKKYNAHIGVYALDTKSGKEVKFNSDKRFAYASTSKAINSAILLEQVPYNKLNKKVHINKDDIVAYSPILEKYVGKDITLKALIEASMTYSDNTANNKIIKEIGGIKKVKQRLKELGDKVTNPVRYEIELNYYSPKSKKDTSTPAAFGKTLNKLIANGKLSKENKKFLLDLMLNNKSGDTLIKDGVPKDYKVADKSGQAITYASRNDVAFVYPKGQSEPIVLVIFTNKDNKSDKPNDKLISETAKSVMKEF"},
  "source": "paper PMC12005801",
  "about": "“Non‐Membrane Active Peptide Resensitizes MRSA to β‐Lactam Antibiotics and Inhibits S. aureus Virulence” (Advanced Science, 2025)",
  "key": {"human red blood cells": {"tested_on": "human red blood cells", "conditions": "cited from earlier work"}, "mammalian RBCs": {"tested_on": "mammalian RBCs", "conditions": "1/2 MIC (8 µg mL^−1) GN1 combined with various concentrations of β‐lactam antibiotics"}, "HEK293T cells": {"tested_on": "HEK293T cells", "conditions": "concentrations up to 256 µg mL^−1"}, "[1]": {"tested_on": "macrophage RAW264.7 cells"}, "β‐lactamase": {"target": "β‐lactamase (Staphylococcus aureus, UniProt P00807)", "experiment": "biochemical"}},
  "data": [
    {"compound": "CC[C@H](C)[C@H](NC(=O)[C@H](CCCCN)NC(=O)[C@H](CCCCN)NC(=O)[C@H](Cc1ccccc1)NC(=O)[C@@H](NC(=O)[C@H](CCCCN)NC(=O)[C@H](CCCCN)NC(=O)[C@@H](NC(=O)[C@H](CC(C)C)NC(=O)[C@H](CCCCN)NC(=O)[C@H](CCCNC(=N)N)NC(=O)[C@@H](NC(=O)[C@H](CCCNC(=N)N)NC(=O)[C@H](CCCCN)NC(=O)[C@H](C)N)[C@@H](C)CC)[C@@H](C)CC)[C@@H](C)CC)C(=O)O", "note": "[GN1]", "values": [
      {"measurement": "Toxicity to human red blood cells", "setting": "human red blood cells", "result": "non‐toxic"},
      {"measurement": "Hemolysis of mammalian erythrocytes", "setting": "mammalian RBCs", "result": "did not cause hemolysis"},
      {"measurement": "Cytotoxicity (cell death)", "setting": "HEK293T cells", "result": "no significant cell death"},
      {"measurement": "Cytotoxicity (cell death)", "setting": "[1]; concentrations up to 256 µg mL^−1", "result": "no significant cell death"},
      {"measurement": "IC50", "setting": "β‐lactamase", "result": 2260, "unit": "nM"}
    ]},
    {"compound": "CC[C@@H](C)[C@@H](NC(=O)[C@@H](CCCCN)NC(=O)[C@@H](CCCCN)NC(=O)[C@@H](Cc1ccccc1)NC(=O)[C@H](NC(=O)[C@@H](CCCCN)NC(=O)[C@@H](CCCCN)NC(=O)[C@H](NC(=O)[C@@H](CC(C)C)NC(=O)[C@@H](CCCCN)NC(=O)[C@@H](CCCNC(=N)N)NC(=O)[C@H](NC(=O)[C@@H](CCCNC(=N)N)NC(=O)[C@@H](CCCCN)NC(=O)[C@@H](C)N)[C@H](C)CC)[C@H](C)CC)[C@H](C)CC)C(=O)O", "note": "[D-GN1]", "values": [
      {"measurement": "cell survival rate", "setting": "[1]; 64 µg mL^−1", "result": "less than 20%"}
    ]}
  ]
}
